We go through 34 compounds from PubChem BioAssay AID1487 (National Center for Advancing Translational Sciences (NCATS), 2009).

This is one part of the list. The main result of the screen is listed elsewhere. These columns were measured beside it and carry no call. Most of these compounds were active or inconclusive in the main read-out, so they are no random draw. Words in brackets tell the shape of the fitted curve; partial curves, single points and poor fits give uncertain potencies.

In general, AC50 refers to the midpoint of the concentration-response curve, whichever way the signal moves.

This test is described as follows: qHTS Assay for Modulators of Lamin A Splicing. To be noted: HeLa LMNA splicing GFP/RFP minigene ratio, 48 h. Put shortly:
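S3 HeLa cells stably expressing lamin A-EGFP splicing minigene plus DsRed2, 600 cells/well, 48 h compound exposure at 37C. Laser-scanning cytometry; analysed as GFP (500-530 nm)/RFP (575-640 nm) total intensity ratio; 0.5% DMSO vehicle.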
Background: Quantitative high-throughput screening tests each substance at several concentrations.

[1] abbreviates: measured here: RFP viability control channel.
The mark [2] stands for this setting: measured here: GFP splicing reporter channel.

`COc1ccc(OC)c(NC(=S)N(CCc2c(C)[nH]c3ccccc23)Cc2cccs2)c1`: the AC50 under setting [1] is 12.6 µM [rising, partial curve, poor fit]. For `CC1CCN(C(=O)C2CCN(C(=O)c3cc4sccc4n3Cc3ccc(F)cc3)CC2)CC1`, the concentration at half-maximal activity (AC50) under setting [1] is 5.01 µM [rising, full curve]. With `Cn1c(C(O)C(O)c2ccccc2)nc2ccccc21` (configuration not stated), under setting [1], the AC50 was 0.00316 µM [falling, full curve, poor fit]. For the compound `O=C(Nc1ccc2c(c1)nc1n2CCSC1)c1ccco1`, the AC50 is, setting by setting: under setting [2], 0.158 µM [rising, full curve, poor fit]; under setting [1], 0.00316 µM [rising, full curve, poor fit]. Regarding `CCCOC(=O)c1ccc(O)cc1`, the AC50 under setting [2] is 8.91 µM [rising, partial curve, poor fit]. In the case of `O=C(CSc1ncnc2nc[nH]c12)N1CCN(c2ccc(Cl)cc2)CC1`, the AC50 is 8.91 µM [rising, partial curve] under setting [2] and 10 µM [rising, partial curve] under setting [1].

Regarding `Cc1ccc(-c2oc3ccccc3c(=O)c2O)cc1`, the AC50 was 22.4 µM [rising, single point] under setting [2] and 35.5 µM [rising, single point] under setting [1]. Take `CC(C)N(Cc1nc(-c2ccccc2)no1)C(=O)c1ccc(Cl)cc1`: the AC50 under setting [1] is 12.6 µM [rising, single point]. Take `Cc1ccc(C)c(NC(=O)C(c2ccccc2)N2Cc3ccccc3C2=O)c1` (configuration not stated): the AC50 under setting [2] is 0.01 µM [falling, full curve, poor fit] and the AC50 under setting [1] is 0.02 µM [falling, full curve, poor fit].

Regarding `CN(C)CCNC(=O)c1sc2cccc(F)c2c1Cl`, under setting [2], the AC50 is 2 µM [rising, partial curve, poor fit]. Regarding `O=C1SCC(c2ccc(Cl)cc2Cl)=NN1Cc1nnc(-c2ccccc2)o1`, the AC50 under setting [1] was 14.1 µM [rising, partial curve, poor fit]. Regarding `CC(=O)N1CCCc2cc(S(=O)(=O)N3CCN(c4cccc(C(F)(F)F)c4)CC3)ccc21`, the AC50 runs as follows: under setting [2], 11.2 µM [falling, partial curve, poor fit]; under setting [1], 15.8 µM [falling, partial curve, poor fit]. On to `Cc1ccc(-c2cc(C(F)(F)F)nn2-c2ccc(S(N)(=O)=O)cc2)cc1`, for which, under setting [1], the AC50 is 35.5 µM [rising, single point].

In the case of `Cc1ccc2cc(C#N)c(NCCNC(=O)C3CC3)nc2c1C`, the AC50 under setting [1] is 12.6 µM [rising, partial curve].

Consider `Cn1cc(/C=N/NC(=O)c2cccc([N+](=O)[O-])c2)c2ccccc21`, for which, under setting [1], the AC50 was 7.08 µM [rising, partial curve, poor fit].

With `O=C(N/N=C/c1cccs1)c1n[nH]c2c1CCC2`, under setting [1], the AC50 was 8.91 µM [rising, partial curve, poor fit]. Regarding `COc1cccc(NS(=O)(=O)c2ccc3c(c2)CCCN3C(=O)C2CCC2)c1`, under setting [2], the concentration at half-maximal activity (AC50) was 5.62 µM [falling, partial curve, poor fit]. As for `CCOC(=O)c1cnc2ccc(OC)cc2c1Nc1ccc2c(c1)OCCO2`, the AC50 under setting [2] is 12.6 µM [rising, single point]. As to `COc1ccc2[nH]c3c(=O)n(CCCCC(=O)N4CCC(C(N)=O)CC4)c(=S)[nH]c3c2c1`, the AC50 under setting [1] was 25.1 µM [falling, single point]. As for `COc1ccc(-c2nn(-c3cccc([N+](=O)[O-])c3)c3c2cnc2cc4c(cc23)OCO4)cc1`, the concentration at half-maximal activity (AC50) under setting [2] was 0.178 µM [rising, partial curve] and the concentration at half-maximal activity (AC50) under setting [1] was 15.8 µM [rising, single point]. On to `Cc1cc(C)c(C2=CSC3=NS(=O)(=O)CCN23)c(C)c1`, for which the half-maximal activity concentration (AC50) under setting [2] was 0.0251 µM [falling, full curve, poor fit] and the AC50 under setting [1] is 0.0631 µM [falling, full curve, poor fit]. `CSc1ncc(CN2CCN(CCC(C)C)C(CCO)C2)cn1` (configuration not stated): the AC50 runs as follows: under setting [2], 5.01 µM [falling, full curve, poor fit]; under setting [1], 2.24 µM [falling, full curve]. As for `CC(=O)Nc1ccc(S(=O)(=O)Nc2cccc(-c3nc4ccccc4o3)c2)cc1`, the AC50 under setting [1] is 12.6 µM [rising, single point].

As for `CCC(=O)Nc1sc2c(c1C(=O)Nc1cccc(C)c1)CCCC2`, under setting [1], the AC50 is 6.31 µM [rising, single point]. For `CCNc1ncc2nc(-c3ccc(F)cc3)c(=O)n(C)c2n1`, the AC50 runs as follows: under setting [2], 12.6 µM [falling, partial curve, poor fit]; under setting [1], 14.1 µM [falling, partial curve]. Turning to `O=C(Nc1ccc(S(=O)(=O)N2CCCCC2)cc1)c1ccncc1`, under setting [1], the AC50 was 14.1 µM [rising, partial curve]. Regarding `CC(C)CC(=O)NCc1ccc2[nH]c3c(c2c1)CCCC3`, under setting [2], the AC50 is 6.31 µM [falling, single point].

Turning to `CC1(C)Cc2c(c(-c3ccccc3)[nH]c(=O)c2C#N)CO1`, the AC50 is 7.94 µM [rising, partial curve, poor fit] under setting [2] and 7.94 µM [rising, partial curve] under setting [1].

As for `CC(C)(C)c1ccc(C(=O)NC(Cc2c[nH]c3ccccc23)C(=O)OCC(=O)c2ccc(Cl)cc2)cc1` (configuration not stated), the AC50 runs as follows: under setting [2], 0.355 µM [falling, full curve, poor fit]; under setting [1], 0.282 µM [falling, full curve, poor fit]. For the compound `Cc1ccc(NC(=O)c2ccc(Cn3cc([N+](=O)[O-])cn3)cc2)c(C)c1`, the AC50 is, setting by setting: under setting [2], 8.91 µM [rising, partial curve, poor fit]; under setting [1], 1.41 µM [rising, partial curve]. With `COc1cc(OC)cc(-c2cc3nc(C)c(CCC(=O)NC(C)CCc4ccco4)c(C)n3n2)c1` (configuration not stated), under setting [1], the AC50 was 15.8 µM [rising, single point].

Consider `N=c1c2c(n(Cc3ccc(Cl)cc3)c3c1CCC3)CCC2`, for which the AC50 under setting [1] is 14.1 µM [rising, partial curve].

For the compound `CCc1ccc(NC(=O)CCNS(=O)(=O)c2ccc3c(c2)CCCC(=O)N3)cc1`, under setting [1], the AC50 is 0.708 µM [rising, full curve]. On to `CCOc1ccc2nc(NC(=O)CN3CCC(n4nnc5cc(F)ccc54)CC3)sc2c1`, for which the AC50 runs as follows: under setting [2], 11.2 µM [rising, single point]; under setting [1], 14.1 µM [rising, single point].
